Experimental data reported in the supplement of paper PMC12823440, “Inhibitors supercharge kinase turnover through native proteolytic circuits” (Nature, 2025).
Counter-ions that a name gives are not always drawn. The list shows a part of the results. Hit calls seldom repeat between salt and free forms of one compound.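 Kinases, fused to nanoluciferase, were expressed in K562 cells; luminescence was measured every 4 h from 2 to 18 h as percent of control (DMSO = 100%, positive control = 0%). A time point is decreased if signal falls significantly (2 sigma). Hits were called by the authors by a rule that is not shown; the count of time points alone does not decide it.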

The chains behind the UniProt entries cited, without tags or fusion partners. Where a name states a change or a piece, a line headed by the entry shows the natural chain unless it says otherwise.
UniProt P53667: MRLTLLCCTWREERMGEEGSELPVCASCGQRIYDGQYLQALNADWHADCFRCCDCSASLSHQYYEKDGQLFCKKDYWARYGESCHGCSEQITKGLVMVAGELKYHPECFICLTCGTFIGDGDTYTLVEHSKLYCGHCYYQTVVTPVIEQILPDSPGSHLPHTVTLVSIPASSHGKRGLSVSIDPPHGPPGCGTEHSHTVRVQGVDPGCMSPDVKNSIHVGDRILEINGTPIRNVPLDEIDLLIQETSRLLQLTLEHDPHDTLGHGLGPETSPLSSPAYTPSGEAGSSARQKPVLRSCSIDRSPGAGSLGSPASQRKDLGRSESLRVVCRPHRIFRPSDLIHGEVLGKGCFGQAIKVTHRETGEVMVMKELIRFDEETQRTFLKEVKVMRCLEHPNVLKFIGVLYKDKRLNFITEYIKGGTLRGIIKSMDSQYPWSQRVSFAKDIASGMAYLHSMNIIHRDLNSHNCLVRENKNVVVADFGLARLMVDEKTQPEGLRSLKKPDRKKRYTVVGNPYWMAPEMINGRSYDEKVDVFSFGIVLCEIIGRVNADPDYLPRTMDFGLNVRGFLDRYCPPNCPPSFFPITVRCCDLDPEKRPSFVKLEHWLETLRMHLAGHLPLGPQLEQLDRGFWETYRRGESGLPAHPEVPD
UniProt P53671: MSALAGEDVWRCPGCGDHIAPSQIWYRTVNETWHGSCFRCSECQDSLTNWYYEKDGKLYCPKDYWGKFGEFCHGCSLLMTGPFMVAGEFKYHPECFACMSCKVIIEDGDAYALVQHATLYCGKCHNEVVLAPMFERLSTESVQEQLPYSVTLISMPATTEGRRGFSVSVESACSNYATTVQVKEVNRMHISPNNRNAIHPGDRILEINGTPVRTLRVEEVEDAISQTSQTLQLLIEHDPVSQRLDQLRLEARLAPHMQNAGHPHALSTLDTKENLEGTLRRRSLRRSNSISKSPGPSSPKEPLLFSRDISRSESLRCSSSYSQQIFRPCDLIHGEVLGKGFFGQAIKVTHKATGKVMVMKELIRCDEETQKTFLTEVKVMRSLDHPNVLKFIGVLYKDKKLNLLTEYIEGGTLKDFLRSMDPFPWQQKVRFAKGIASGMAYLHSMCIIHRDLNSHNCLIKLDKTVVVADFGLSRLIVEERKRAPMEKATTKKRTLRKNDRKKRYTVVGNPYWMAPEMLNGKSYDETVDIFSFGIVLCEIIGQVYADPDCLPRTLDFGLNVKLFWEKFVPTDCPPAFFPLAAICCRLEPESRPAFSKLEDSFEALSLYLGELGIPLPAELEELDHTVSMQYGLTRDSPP

The molecules below were run against LIMK1 (UniProt P53667) (assay: number of time points (of 5) at which kinase-Nluc abundance scored as decreased, DMSO-normalised (count); higher = more persistent destabilization). Conditions: K562; 2-18 h.
In the case of `CCc1c[nH]c2ncnc(N3CC[C@](N)(CNC(=O)c4ccc(F)cc4F)C3)c12` (10 µM), the “number of time points” value is reported as 0. For `Nc1ncnc2c1nc(Br)n2[C@@H]1O[C@@H]2COP(=O)(O)O[C@H]2[C@H]1O` [8-Bromo-cAMP sodium salt] (10 µM), the “number of time points” value was 0. With `CC(C)n1c(=O)n(C)c2cnc3cc(F)c(-c4ccc(OCCCN5CCCCC5)nc4)cc3c21` (10 µM) the “number of time points” value was 0. For `Cc1ccc(C)c(OCCn2cc(C(=O)O)c3ccccc32)c1` (10 µM), the “number of time points” value was 0. For `COCCOc1ccc2c(c1)ncn2-c1ccc2cccc(N3CCC(N)CC3)c2n1` (10 µM), the “number of time points” value was 0. With `CC(C)=CCC/C(C)=C/CC/C(C)=C/C=C/C(C)=C/C(=O)O` [Peretinoin] (10 µM) the “number of time points” value was 0. For `C=CC(=O)N1CC[C@@H](Oc2nc(Nc3ccc(N4CCC(N5CCN(C)CC5)CC4)cc3)c(C(N)=O)nc2CC)C1` [Naquotinib (mesylate)] (2.5 µM), the “number of time points” value was 0. In the case of `CC(Sc1nc2c(cnn2-c2cccc(Cl)c2)c(=O)[nH]1)C(N)=O` (stereo not drawn) (10 µM), the “number of time points” value is reported as 0. `Cc1cc(O)c2c(c1)C(=O)c1cccc(O)c1C2=O` [Chrysophanol] (2 µM) was tested, and the “number of time points” value was 0. For `O=C1OC(/C=C/c2ccccc2)=NC/1=C\c1cccnc1` (10 µM), the “number of time points” value was 0.

The molecules below were run against LIMK2 (UniProt P53671) in the same assay as above. Conditions: K562; 2-18 h.
With `CN1CCN(c2cc(-c3ccncc3)c(-c3ccc4ccccc4c3)nn2)CC1` (10 µM) the “number of time points” value was 0. In the case of `CC(O)(C#Cc1ccc2c(c1)N(c1nc(N)ncc1Cl)CC2)c1nccs1` (stereo not drawn) (2.5 µM), the “number of time points” value is reported as 0. For `COc1ccc(Nc2ncc(C(F)(F)F)c(NC3CC3)n2)cc1OC` (10 µM), the “number of time points” value was 0. `O=c1cc(N2CCOCC2)oc2c(-c3ccc4c(c3)OCCO4)csc12` (2.5 µM) was tested, and the “number of time points” value was 0. With `N[C@@H]1CCCN(c2c(/C=C3\SC(=O)NC3=O)cccc2-c2ccccc2)C1` (10 µM) the “number of time points” value was 0. For `N#Cc1ccc(-c2cnc3[nH]cc(NC(=O)c4cccnc4)c3c2)cc1` (10 µM), the “number of time points” value was 0. With `COc1ccc(Br)cc1NC(=O)Nc1cccc2c1ccn2Cc1ccnc(N)c1` (2.5 µM) the “number of time points” value was 0. With `COc1cc(N2CCOCC2)ccc1Nc1ncc(F)c(Nc2ccccc2NS(C)(=O)=O)n1` (10 µM) the “number of time points” value was 0. With `COc1ccc(-c2cc(=O)c3c(OC)cc(OC)c(OC)c3o2)cc1` [6-Demethoxytangeretin] (10 µM) the “number of time points” value was 0. `COc1cc2c(cc1O)C[C@H]1c3cc(O)c(OC)cc3CC[N@@+]1(C)C2` [Phellodendrine] (10 µM) was tested, and the “number of time points” value was 0. For `CO[C@H]1C[C@@H]2CC[C@@H](C)[C@@](O)(O2)C(=O)C(=O)N2CCCC[C@H]2C(=O)O[C@H]([C@H](C)C[C@@H]2CC[C@@H](OC(=O)C(C)(CO)CO)[C@H](OC)C2)CC(=O)[C@H](C)/C=C(\C)[C@@H](O)[C@@H](OC)C(=O)[C@H](C)C[C@H](C)/C=C/C=C/C=C/1C` [Temsirolimus] (2.5 µM), the “number of time points” value was 0. With `O=C(ON=C1c2ccccc2-c2nc3ccccc3nc21)c1ccco1` (2.5 µM) the “number of time points” value was 0. For `COc1ccc(S(=O)(=O)Nc2cc(-c3c(O)ccc4ccccc34)c(O)c3ccccc23)cc1` (10 µM), the “number of time points” value was 0. With `Cc1cccc(COc2cccc(/C=C3\C(=O)NN(c4ccccc4)C3=O)c2)c1` (10 µM) the “number of time points” value was 0. `CC(C)Oc1ccc(F)c(-c2cnc(N)c(C(=O)Nc3cnccc3N3CCC[C@@H](C(=O)O)C3)n2)c1` (2 µM) was tested, and the “number of time points” value was 0. For `COc1cc(F)ccc1-c1ncnc(Nc2cccc(C[S@](C)(=N)=O)c2)n1` [Atuveciclib] (2.5 µM), the “number of time points” value was 0. `CC(C)n1ncnc1-c1cn2c(n1)-c1ccc(O[C@@H](C)C(N)=O)cc1OCC2` (10 µM) was tested, and the “number of time points” value was 0. In the case of `Cn1c(CNc2cccc(C(=O)NCc3ccccc3C(F)(F)F)c2)nnc1-c1ccncc1` (10 µM), the “number of time points” value is reported as 0. `O=Nc1c(-c2c(O)[nH]c3cc(Br)ccc23)[nH]c2ccccc12` [GSK 3 Inhibitor IX] (2.5 µM) was tested, and the “number of time points” value was 0. With `Nc1ncc(C(=O)NC2CN(C(=O)C3CC3)C2)c2ccc(-c3cccc(F)c3)nc12` (2 µM) the “number of time points” value was 0. For `O=C(Nc1cc(Cl)cc2c1[nH]c1cnccc12)c1cccnc1` (10 µM), the “number of time points” value was 0. `c1ccc(Cn2c(-c3ccc(OC[C@H](C4CCNCC4)n4c(-c5ccccc5)nc5ccccc54)cc3)nc3ccccc32)cc1` [Deltarasin] (2.5 µM) was tested, and the “number of time points” value was 0. With `COc1cc2ncnc(Nc3cccc(I)c3)c2cc1OC` (2.5 µM) the “number of time points” value was 0. `Clc1ccc(C(c2ccc(Cl)cc2)[n+]2ccn(CC(OCc3ccc(Cl)cc3Cl)c3ccc(Cl)cc3Cl)c2)cc1` (stereo not drawn) [Calmidazolium chloride] (2.5 µM) was tested, and the “number of time points” value was 2. For `O=C(Nc1cccnc1)c1cc(-c2ccnc(F)c2)ccc1OCc1ccccc1` (10 µM), the “number of time points” value was 0. With `c1nn(C2CCOCC2)cc1Nc1ncc2nnn(-c3ccc4cn[nH]c4c3)c2n1` (10 µM) the “number of time points” value was 0. In the case of `COC(=O)[C@H](CCSC)NC(=O)c1ccc(NC[C@@H](N)CS)cc1-c1ccccc1` [FTI-277 (hydrochloride)] (10 µM), the “number of time points” value is reported as 0. In the case of `Cc1cc(Nc2cc(N)ncn2)c(=O)n2c1C(=O)NC21CCCCC1` [Tomivosertib] (10 µM), the “number of time points” value is reported as 0. With `CCc1c[nH]c2ncnc(N3CC[C@](N)(CNC(=O)c4ccc(F)cc4F)C3)c12` (10 µM) the “number of time points” value was 0. With `Nc1ncnc2c1nc(Br)n2[C@@H]1O[C@@H]2COP(=O)(O)O[C@H]2[C@H]1O` [8-Bromo-cAMP sodium salt] (10 µM) the “number of time points” value was 0. `CC(C)n1c(=O)n(C)c2cnc3cc(F)c(-c4ccc(OCCCN5CCCCC5)nc4)cc3c21` (10 µM) was tested, and the “number of time points” value was 0. In the case of `Cc1ccc(C)c(OCCn2cc(C(=O)O)c3ccccc32)c1` (10 µM), the “number of time points” value is reported as 0. `COCCOc1ccc2c(c1)ncn2-c1ccc2cccc(N3CCC(N)CC3)c2n1` (10 µM) was tested, and the “number of time points” value was 0. In the case of `CC(C)=CCC/C(C)=C/CC/C(C)=C/C=C/C(C)=C/C(=O)O` [Peretinoin] (10 µM), the “number of time points” value is reported as 0. For `C=CC(=O)N1CC[C@@H](Oc2nc(Nc3ccc(N4CCC(N5CCN(C)CC5)CC4)cc3)c(C(N)=O)nc2CC)C1` [Naquotinib (mesylate)] (2.5 µM), the “number of time points” value was 0. In the case of `CC(Sc1nc2c(cnn2-c2cccc(Cl)c2)c(=O)[nH]1)C(N)=O` (stereo not drawn) (10 µM), the “number of time points” value is reported as 0. `Cc1cc(O)c2c(c1)C(=O)c1cccc(O)c1C2=O` [Chrysophanol] (2 µM) was tested, and the “number of time points” value was 0. With `O=C1OC(/C=C/c2ccccc2)=NC/1=C\c1cccnc1` (10 µM) the “number of time points” value was 0.
